Experiment [1] concerns the target His6-tagged HIV-1 integrase wild type (HIV-1). Put plainly: pull-down; Ni-NTA (Ni-charged resin) pull-down by His6-IN; 2 μg His6-IN with 2 μg GST protein in 200 μl of 150 mM NaCl, 25 mM imidazole, 2 mM MgCl2, 0.1% NP40, 50 mM Tris HCl pH 7.4, 4 °C; SDS-PAGE and protein staining; both purified.
Experiment [2] shares this target. Nature of the experiment: AlphaScreen or HTRF; HTRF; His-IN 80 nM, GST-LEDGF/p75 or GST-TNPO3 5 nM, anti-GST-Europium Cryptate and anti-His-XL665; 25 mM Hepes pH 7.3, 150 mM NaCl, 2 mM MgCl2, 0.1% BSA, 1 mM DTT; read 2 h after incubation; signal as percent of IN WT ΔF; both purified. (In general: Bead proximity is the source of the signal in Alpha formats.)

These are yes or no findings as the source states them, for the method shown. Binding calls can cover weak binding; strength is not graded here. Where a sequence is shown, tags or fusion partners need not be part of it.

B1: GST-TNPO3 full length (protein, UniProt Q9Y5L0 1-923)
chain: MEGAKPTLQLVYQAVQALYHDPDPSGKERASFWLGELQRSVHAWEISDQLLQIRQDVESCYFAAQTMKMKIQTSFYELPTDSHASLRDSLLTHIQNLKDLSPVIVTQLALAIADLALQMPSWKGCVQTLVEKYSNDVTSLPFLLEILTVLPEEVHSRSLRIGANRRTEIIEDLAFYSSTVVSLLMTCVEKAGTDEKMLMKVFRCLGSWFNLGVLDSNFMANNKLLALLFEVLQQDKTSSNLHEAASDCVCSALYAIENVETNLPLAMQLFQGVLTLETAYHMAVAREDLDKVLNYCRIFTELCETFLEKIVCTPGQGLGDLRTLELLLICAGHPQYEVVEISFNFWYRLGEHLYKTNDEVIHGIFKAYIQRLLHALARHCQLEPDHEGVPEETDDFGEFRMRVSDLVKDLIFLIGSMECFAQLYSTLKEGNPPWEVTEAVLFIMAAIAKSVDPENNPTLVEVLEGVVRLPETVHTAVRYTSIELVGEMSEVVDRNPQFLDPVLGYLMKGLCEKPLASAAAKAIHNICSVCRDHMAQHFNGLLEIARSLDSFLLSPEAAVGLLKGTALVLARLPLDKITECLSELCSVQVMALKKLLSQEPSNGISSDPTVFLDRLAVIFRHTNPIVENGQTHPCQKVIQEIWPVLSETLNKHRADNRIVERCCRCLRFAVRCVGKGSAALLQPLVTQMVNVYHVHQHSCFLYLGSILVDEYGMEEGCRQGLLDMLQALCIPTFQLLEQQNGLQNHPDTVDDLFRLATRFIQRSPVTLLRSQVVIPILQWAIASTTLDHRDANCSVMRFLRDLIHTGVANDHEEDFELRKELIGQVMNQLGQQLVSQLLHTCCFCLPPYTLPDVAEVLWEIMQVDRPTFCRWLENSLKGLPKETTVGAVTVTHKQLTDFHKQVTSAEECKQVCWALRDFTRLFR
For B1, the binding entry in experiment [1] and in experiment [2] was “binds” each time.
